Consider 1 substance from article PMC9614494.

Chains of the proteins cited; added tags and fusions are not shown. Residues count along the entry.
UniProt Q42522, residues 37-472: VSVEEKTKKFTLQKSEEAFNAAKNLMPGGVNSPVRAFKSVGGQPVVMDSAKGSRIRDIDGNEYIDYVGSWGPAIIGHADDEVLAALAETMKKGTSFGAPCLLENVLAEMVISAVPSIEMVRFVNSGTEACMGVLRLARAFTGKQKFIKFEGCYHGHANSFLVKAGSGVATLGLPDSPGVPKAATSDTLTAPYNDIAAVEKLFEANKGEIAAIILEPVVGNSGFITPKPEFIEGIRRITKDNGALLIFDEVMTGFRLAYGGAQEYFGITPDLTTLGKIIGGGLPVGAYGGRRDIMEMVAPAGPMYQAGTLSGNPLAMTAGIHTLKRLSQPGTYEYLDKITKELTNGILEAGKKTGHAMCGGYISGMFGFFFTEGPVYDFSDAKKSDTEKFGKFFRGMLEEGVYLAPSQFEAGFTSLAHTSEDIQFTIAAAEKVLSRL

Results are given in words; binding and its absence hold for the method and conditions named. In cells and extracts the contact can be indirect. Some entries that bind do so weakly or less than the wild type.

The target in the test is GSAAT2 (glutamate-1-semialdehyde aminotransferase 2) fused to a half of YFP-Venus (Arabidopsis thaliana) (UniProt Q42522). As to the kind of experiment: split reporter; BiFC with halves of YFP-Venus, transient co-expression in N. benthamiana leaves for 48-72 h in the dark, confocal microscopy; GSAAT-YFPc with GBP-YFPn, HEMA1-YFPn or GSAAT-YFPn.

On to “GSAAT2 (glutamate-1-semialdehyde aminotransferase 2) fused to a half of YFP-Venus (from UniProt Q42522 37-472) (enzyme)”, for which the binding result is “binds”.
